Earlier results on 1 molecule are cited in patent publication US20120046286A1, “Novel Compounds” (priority 2009, published 2012).

By UniProt entry, the sequences of proteins in these tests, tags left out.
UniProt P68400, whole entry: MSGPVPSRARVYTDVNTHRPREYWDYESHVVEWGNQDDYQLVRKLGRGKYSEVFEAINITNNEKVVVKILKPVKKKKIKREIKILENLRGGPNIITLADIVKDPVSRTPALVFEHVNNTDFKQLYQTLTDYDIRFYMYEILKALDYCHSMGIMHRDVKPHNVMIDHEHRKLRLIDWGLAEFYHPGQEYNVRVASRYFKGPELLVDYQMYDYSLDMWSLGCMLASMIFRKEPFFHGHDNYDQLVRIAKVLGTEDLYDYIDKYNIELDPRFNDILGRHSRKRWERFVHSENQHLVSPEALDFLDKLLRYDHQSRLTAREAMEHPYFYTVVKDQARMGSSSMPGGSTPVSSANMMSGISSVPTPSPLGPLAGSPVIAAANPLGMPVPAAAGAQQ

One may read the IC50 as the concentration needed to halve the response being measured.

One series addresses CK2 protein kinase (Homo sapiens, UniProt P68400). The following applies: read-out: IC50 on CK2 protein kinase.
A further series concerns Class I PI3-kinases. The note with it: Fruman et al. 1998; read-out: IC50 against each of the Class I PI3-kinases.

Regarding `O=c1cc(N2CCOCC2)oc2c(-c3ccccc3)cccc12` [LY294002], the IC50 at CK2 protein kinase was 5 to 10 µM; with Class I PI3-kinases, 15 to 20 µM.
